# Data published in PubChem BioAssay AID651768 (National Center for Advancing Translational Sciences (NCATS), 2012).
# The chains behind the UniProt entries cited, without tags or fusion partners.
# UniProt Q14191, whole entry, looked up: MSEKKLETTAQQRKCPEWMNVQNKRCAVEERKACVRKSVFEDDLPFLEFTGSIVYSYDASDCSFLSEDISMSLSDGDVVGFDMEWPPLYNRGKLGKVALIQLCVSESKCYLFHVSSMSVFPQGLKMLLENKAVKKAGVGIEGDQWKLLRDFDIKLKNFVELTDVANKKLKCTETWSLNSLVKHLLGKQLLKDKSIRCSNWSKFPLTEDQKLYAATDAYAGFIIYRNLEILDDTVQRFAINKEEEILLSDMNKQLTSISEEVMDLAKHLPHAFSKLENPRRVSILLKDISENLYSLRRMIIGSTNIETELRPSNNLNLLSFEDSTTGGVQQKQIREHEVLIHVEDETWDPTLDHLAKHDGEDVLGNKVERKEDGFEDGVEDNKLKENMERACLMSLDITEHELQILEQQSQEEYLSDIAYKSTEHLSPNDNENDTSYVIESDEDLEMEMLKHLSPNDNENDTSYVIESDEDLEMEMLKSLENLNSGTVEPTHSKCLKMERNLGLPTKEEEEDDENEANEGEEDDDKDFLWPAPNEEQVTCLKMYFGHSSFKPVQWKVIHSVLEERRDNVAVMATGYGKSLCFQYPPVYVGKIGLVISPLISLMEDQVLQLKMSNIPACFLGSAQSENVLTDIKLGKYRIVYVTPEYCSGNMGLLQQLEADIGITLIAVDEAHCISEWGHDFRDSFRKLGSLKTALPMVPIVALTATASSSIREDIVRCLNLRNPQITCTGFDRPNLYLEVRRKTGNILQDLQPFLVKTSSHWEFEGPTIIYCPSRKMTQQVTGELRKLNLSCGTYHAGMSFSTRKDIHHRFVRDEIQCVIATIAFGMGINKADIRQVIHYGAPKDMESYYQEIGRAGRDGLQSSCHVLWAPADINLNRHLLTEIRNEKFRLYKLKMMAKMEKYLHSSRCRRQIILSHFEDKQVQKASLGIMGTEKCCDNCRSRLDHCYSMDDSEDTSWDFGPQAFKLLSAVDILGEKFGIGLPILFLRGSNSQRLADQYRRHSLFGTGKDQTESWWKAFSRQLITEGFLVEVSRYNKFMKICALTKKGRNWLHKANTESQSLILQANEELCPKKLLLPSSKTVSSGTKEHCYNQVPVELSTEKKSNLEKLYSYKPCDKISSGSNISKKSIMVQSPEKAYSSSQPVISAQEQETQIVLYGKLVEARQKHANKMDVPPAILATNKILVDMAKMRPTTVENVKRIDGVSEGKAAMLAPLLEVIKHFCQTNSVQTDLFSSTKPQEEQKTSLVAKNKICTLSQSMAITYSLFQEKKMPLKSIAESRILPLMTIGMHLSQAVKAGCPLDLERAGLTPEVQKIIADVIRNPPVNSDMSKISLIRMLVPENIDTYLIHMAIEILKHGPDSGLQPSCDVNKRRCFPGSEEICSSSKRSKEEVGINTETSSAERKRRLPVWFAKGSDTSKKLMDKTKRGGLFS
# In all, about 360,000 compounds went through this assay and about 1,700 (0.47%) were called active. Inconclusive results, whose numbers are uncertain, are shown with a selection of clear calls. Calls come from the whole dose curve; as a rule, active = well fitted inhibition curve with a large enough effect; inconclusive = small, poorly fitted or top-dose-only effect; inactive = no such curve, though single readings can be large or run the other way. Potencies of inconclusive entries are doubtful fits and often do not repeat.
# Target: Bifunctional 3'-5' exonuclease/ATP-dependent helicase WRN (Homo sapiens) (UniProt Q14191)
# Assay: qHTS for Inhibitors of WRN Helicase; note: nearly all actives have a fitted effect of over 55% in size
# Settings: WRN helicase unwinding, fluorescent forked duplex, kinetic; activity change, negative = inhibition: at 114 µM (top of the series) unless noted
# In short: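 Fluorescence dequenching readout, ex 525 nm/em 598 nm, kinetic mode: forked duplex DNA (100 nM final) with adjacent fluorophore and quencher unwound by WRN (20 nM final) with 2 mM ATP. Compound preincubation 15 min, room temperature.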
# % is set by controls: 0 for no effect and ±100 for the full control effect; potency is the fitted concentration of half-maximal effect.
Structure (SMILES),Potency,"activity change, negative = inhibition"
O=[N+]([O-])c1cc(/C=N/n2c(-c3ccncc3)n[nH]c2=S)ccc1Cl,"inconclusive: 56.2 µM [inhibitor, partial curve]",–
COc1ccc(NS(=O)(=O)c2ccc(O)c(NC(=O)c3cc4c(C)nn(-c5ccc(F)cc5)c4s3)c2)cc1,"inconclusive: 17.8 µM [inhibitor, full curve]",–
CCOC(=O)[C@H]1NN=C(C(=O)OC)[C@@H]1c1ccccc1,–,inactive: -20.4%
Cc1cc(C)c2cc3c(N)c(C(=O)Nc4c(C)[nH]c(=O)[nH]c4=O)sc3nc2c1,"inconclusive: 35.5 µM [inhibitor, single point]",–
S=c1[nH]nc(-c2ccccc2Cl)n1/N=C/C=C/c1ccco1,"inconclusive: 79.4 µM [inhibitor, partial curve]",–
CCN(CC)S(=O)(=O)c1cccc(C(=O)N/N=C/c2ccc(OC)c(O)c2)c1,"inconclusive: 39.8 µM [inhibitor, single point]",–
C#CCOc1c(/C=C\c2nc(O)c([N+](=O)[O-])c(=O)[nH]2)cc(Br)cc1OC,–,inactive: -1.01% [at 11.6 µM]
Cc1cc(NS(=O)(=O)c2ccc(NC(NC(=O)C(C(F)(F)F)C(F)(F)F)(C(F)(F)F)C(F)(F)F)cc2)no1,"inconclusive: 56.2 µM [inhibitor, partial curve]",–
Cc1ccccc1C(=O)NNC(=O)CCC(=O)Nc1cccc(Cl)c1C,"inconclusive: 25.1 µM [inhibitor, single point]",–
Cc1ccc(/C=C2/C(=O)c3ccc(C(=O)O)cc3C2=O)o1,active: 12.6 µM,–
COCCCN(C(=O)c1cc2c(s1)CCC2)c1c(N)n(Cc2ccccc2)c(=O)[nH]c1=O,"inconclusive: 79.4 µM [inhibitor, partial curve]",–
CCOC(=O)/C=C/C(=O)OCC(=O)Nc1ccc(Cl)cc1Cl,"inconclusive: 89.1 µM [inhibitor, single point]",–
CCc1ccccc1N1CSC2=C(C#N)C(c3ccccc3F)CC(=O)N2C1 (stereo not given),–,inactive: -1.47%
N#CC1=C(N)C2=CCCC[C@H]2[C@H](c2ccccc2)C1(C#N)C#N,"inconclusive: 50.1 µM [inhibitor, partial curve]",–
O=C1N=C(N2C=CC(=C3C=CNC=C3)C=C2)/C(=C/N=NC(=O)c2ccccc2O)S1,–,inactive: -31.2%
C#CCn1cc(/C=C2\NC(=O)NC2=O)c2ccccc21,"inconclusive: 50.1 µM [inhibitor, partial curve]",–
C=CCn1c(=NC(=O)c2ccco2)sc2cc(C(=O)OC)ccc21,"inconclusive: 44.7 µM [inhibitor, partial curve]",–
O=C(c1cccnc1)N1CCN(Cc2ccccc2Br)CC1,"inconclusive: 50.1 µM [inhibitor, partial curve]",–
CC(C)CNS(=O)(=O)c1ccc(NC(=O)Cn2nc(-c3ccc(F)cc3)ccc2=O)cc1,"inconclusive: 10 µM [inhibitor, partial curve]",–
CCN(CC)C(=O)Cn1cc(C(=O)C(=O)N2CCN(c3ccc([N+](=O)[O-])cc3)CC2)c2ccccc21,–,inactive: -33%

Structure (SMILES),Potency,"activity change, negative = inhibition"
O=C(O)c1cccc(N/N=C/c2cc(Br)cc(Br)c2O)c1,"inconclusive: 39.8 µM [inhibitor, full curve]",–
CCOc1ccc(-c2csc(Cn3c(CN4CCN(C)CC4)nc4ccccc4c3=O)n2)cc1,"inconclusive: 35.5 µM [inhibitor, partial curve, poor fit]",–
COc1ccc(NC(=O)CSCC(=O)Nc2ccccc2N2CCCC2)cc1,"inconclusive: 28.2 µM [inhibitor, full curve, poor fit]",–
COc1ccc2c(c1)CC/C(=C\c1ccc(OC)c(Cn3nc(C)cc3C)c1)C2=O,"inconclusive: 15 µM [inhibitor, partial curve]",–
COc1ccc(Cn2c(O)c(/C=N/NC(=O)c3cccnc3)c3ccccc3c2=O)cc1,"inconclusive: 50.1 µM [inhibitor, partial curve]",–
O=C(CN(Cc1ccco1)S(=O)(=O)c1ccccc1)N/N=C/c1cccc(O)c1,"inconclusive: 50.1 µM [inhibitor, partial curve]",–
Cc1ccc2nc3c(nc2c1C)C(O)=C3O,"inconclusive: 50.1 µM [inhibitor, partial curve]",–
COc1ccccc1N(O)C1CC(=O)N(c2ccc(Br)cc2)C1=O (stereo not given),"inconclusive: 39.8 µM [inhibitor, partial curve]",–
CN(Cc1cnc2nc(N)nc(N)c2n1)c1ccc(C(=O)NC(CCC(=O)O)C(=O)O)cc1 (stereo not given),"inconclusive: 28.2 µM [inhibitor, partial curve]",–
O=c1c2ccccc2c(/C=N/NS(=O)(=O)c2ccccc2)c(O)n1-c1ccccn1,"inconclusive: 79.4 µM [inhibitor, single point]",–
Cc1ccccc1-n1c(SCC(=O)N2CCN(c3ccccn3)CC2)nnc1N1CCOCC1,"inconclusive: 35.5 µM [inhibitor, full curve, poor fit]",–
O=C(CCCCn1c(=S)[nH]c2ccsc2c1=O)NCc1ccc2c(c1)OCO2,"inconclusive: 50.1 µM [inhibitor, partial curve]",–
COC(=O)C1C2C=CC3(CN(c4cccc(C)c4)C(=O)C13)O2 (stereo not given),"inconclusive: 100 µM [inhibitor, single point]",–
Cc1ccc2nc(/C(C#N)=C\c3ccc(Oc4ccc(C(F)(F)F)cc4[N+](=O)[O-])cc3)[nH]c2c1,active: 56.2 µM,–
COc1ccc(/C=C/c2nc3cc(-c4ccccc4)ccc3o2)cc1O,"inconclusive: 39.8 µM [inhibitor, single point]",–
Cc1ccc(NC(=O)CSc2nc(NS(=O)(=O)c3ccccc3)cc(=O)[nH]2)cc1,active: 50.1 µM,–
Cc1noc(C)c1CCC(=O)N1CCCC(N2CCN(c3ccc(F)cc3)CC2)C1 (stereo not given),–,inactive: -1.6%
NC(=S)NNc1cccc2cccnc12,"inconclusive: 25.1 µM [inhibitor, full curve, poor fit]",–
O=C(Oc1csc(=S)n1C(=O)c1ccccc1)c1ccccc1,–,inactive: -52.1%
COc1cc(/C=N/NC(=O)c2ccc(Cl)c(S(N)(=O)=O)c2)ccc1OCC(N)=O,"inconclusive: 56.2 µM [inhibitor, partial curve]",–

# A stretch from further up:
Structure (SMILES),Potency,"activity change, negative = inhibition"
CN(Cc1cnc2nc(N)nc(N)c2n1)c1ccc(C(=O)NC(CCC(=O)O)C(=O)O)cc1 (stereo not given),"inconclusive: 28.2 µM [inhibitor, partial curve]",–
O=c1c2ccccc2c(/C=N/NS(=O)(=O)c2ccccc2)c(O)n1-c1ccccn1,"inconclusive: 79.4 µM [inhibitor, single point]",–
